# Reference: PubChem BioAssay (EPA / NIEHS)
# Amino acid sequences for entries named in this document (tags omitted). A change or cut given only in a name is not applied to a line headed by its entry.
# UniProt P33261, whole entry, looked up: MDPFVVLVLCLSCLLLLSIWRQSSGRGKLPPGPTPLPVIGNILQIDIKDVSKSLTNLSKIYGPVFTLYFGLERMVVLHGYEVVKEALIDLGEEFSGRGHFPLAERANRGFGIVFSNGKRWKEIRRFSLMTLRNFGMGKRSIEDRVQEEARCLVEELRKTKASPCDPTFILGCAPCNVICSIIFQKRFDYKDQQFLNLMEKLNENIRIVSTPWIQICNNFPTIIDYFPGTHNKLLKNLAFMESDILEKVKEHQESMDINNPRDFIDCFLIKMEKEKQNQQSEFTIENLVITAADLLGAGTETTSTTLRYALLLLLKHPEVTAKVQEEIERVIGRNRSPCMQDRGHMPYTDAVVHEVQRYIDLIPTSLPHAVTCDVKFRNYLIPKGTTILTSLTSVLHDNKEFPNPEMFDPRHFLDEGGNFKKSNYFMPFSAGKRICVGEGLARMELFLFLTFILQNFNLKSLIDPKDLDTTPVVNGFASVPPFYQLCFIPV
# UniProt P04406: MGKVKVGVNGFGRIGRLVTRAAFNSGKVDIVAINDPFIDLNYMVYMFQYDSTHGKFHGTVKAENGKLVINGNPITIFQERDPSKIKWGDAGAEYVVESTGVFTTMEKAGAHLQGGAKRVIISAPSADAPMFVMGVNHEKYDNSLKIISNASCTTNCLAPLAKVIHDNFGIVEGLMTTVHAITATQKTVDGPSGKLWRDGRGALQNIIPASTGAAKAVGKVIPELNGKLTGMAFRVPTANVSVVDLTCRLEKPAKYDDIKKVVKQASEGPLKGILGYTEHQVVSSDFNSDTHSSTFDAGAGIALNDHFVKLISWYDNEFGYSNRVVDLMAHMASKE
# UniProt P11712, whole entry, looked up: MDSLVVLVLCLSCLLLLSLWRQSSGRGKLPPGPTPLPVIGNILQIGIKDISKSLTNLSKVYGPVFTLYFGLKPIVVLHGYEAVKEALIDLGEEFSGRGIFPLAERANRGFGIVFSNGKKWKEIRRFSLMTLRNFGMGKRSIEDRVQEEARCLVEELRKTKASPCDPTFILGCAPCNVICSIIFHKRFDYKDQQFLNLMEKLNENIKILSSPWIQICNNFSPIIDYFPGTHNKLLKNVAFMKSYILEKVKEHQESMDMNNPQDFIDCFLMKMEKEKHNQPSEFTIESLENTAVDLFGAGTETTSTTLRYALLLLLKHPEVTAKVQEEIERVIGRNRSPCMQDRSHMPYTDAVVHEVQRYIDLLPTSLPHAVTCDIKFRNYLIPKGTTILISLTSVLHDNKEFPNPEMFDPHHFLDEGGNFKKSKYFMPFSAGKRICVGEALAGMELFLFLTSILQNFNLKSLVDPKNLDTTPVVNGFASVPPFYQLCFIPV
# This list was built around the results that the source calls inconclusive (neither active nor inactive); the mix of calls is not that of the screen. For some of these results: Where the call is inconclusive, the potency comes from a doubtful curve fit. Active and inactive are the calls of the source. The calls were made as follows: active = hit-call score of the fitted dose curve at least 0.9, where 1 is the maximum; inconclusive = response in the unintended direction; inactive = score below 0.9.
# How the values were obtained:
# [1] = Tanguay_ZF_120hpf_AXIS_legacy: (Legacy) Oregon State University Tanguay Lab 120 Hour Post-fertilization zebrafish Assay for Body Axis Malformation (AID 2283635);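 also: potency for an increased fraction of larvae scored with body axis malformation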
# Summary of the method: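 Chorion is removed with pronase at 4 hpf, then single 6 hpf embryos are dosed (final DMSO 0.64%) and held statically at 28C in sealed, foil-covered plates. At 120 hpf body axis malformation is recorded as present or absent.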
# [2] = Tanguay_ZF_120hpf_EYE_legacy: (Legacy) Oregon State University Tanguay Lab 120 Hour Post-fertilization zebrafish Assay for Eye Malformation (AID 2283636);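 also: binary presence or absence of eye malformation scored by brightfield in 120 hpf larvae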
# Summary of the method: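 Dechorionated wild-type Tropical 5D zebrafish embryos were exposed statically from 6 hpf, one per well, to 120 hpf at 28C in sealed, foil-covered plates with 0.64% DMSO. Eye malformation was scored present/absent by brightfield microscopy against DMSO controls.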
# [3] = Tanguay_ZF_120hpf_JAW_legacy: (Legacy) Oregon State University Tanguay Lab 120 Hour Post-fertilization zebrafish Assay for Jaw Malformation (AID 2283638);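 also: active means more embryos with jaw malformation than DMSO controls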
# Summary of the method: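 Steps: dechorionate 4 hpf embryos (pronase); plate 1/well at 6 hpf; add test chemical, 0.64% DMSO final; seal, cover, hold at 28C statically to 120 hpf; score jaw defect presence/absence microscopically. Dead embryos not scored.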
# [4] = Tanguay_ZF_120hpf_BRAI_legacy: (Legacy) Oregon State University Tanguay Lab 120 Hour Post-fertilization zebrafish Assay for Brain Malformation (AID 2283641)
# Summary of the method: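 Wild-type 5D larvae, static waterborne exposure to 120 hpf, 28C, 0.64% v/v DMSO. Brightfield scoring of brain defects, binary; dead embryos excluded. Positive ctrl 5uM trimethyltin chloride.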
# [5] = Tanguay_ZF_120hpf_SOMI_legacy: (Legacy) Oregon State University Tanguay Lab 120 Hour Post-fertilization zebrafish Assay for Somite Malformation (AID 2283647)
# Summary of the method: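 Read-out: presence or absence of somite malformation in 120 hpf larvae, gain-of-signal relative to DMSO baseline. Embryos lacked chorion (pronase, 4 hpf) and were exposed statically from 6 hpf at 28C; dead larvae not scored.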
# [6] = Tanguay_ZF_120hpf_SWIM_legacy: (Legacy) Oregon State University Tanguay Lab 120 Hour Post-fertilization zebrafish Assay for Swim Bladder Malformation (AID 2283654);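 also: swim bladder malformation in each larva scored yes or no under brightfield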
# Summary of the method: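 Dechorionated Tropical 5D wild-type embryos, placed singly from 6 hpf, were statically exposed at 28C to 120 hpf with 0.64% DMSO final; swim bladder malformation was scored present/absent by brightfield microscopy, gain of signal relative to DMSO controls.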
# [7] = read-out: organic anion transporter (SLCO1B1), SLCO1B1 (gene 10599); test: CLD_SLCO1B1_6hr: CellzDirect (CLD) Gene Expression Assay for organic anion transporter (SLCO1B1) at 6 hours (AID 2283668);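 also: active means mRNA induction above DMSO baseline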
# Summary of the method: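 Primary human hepatocytes dosed daily with test chemicals (multiple concentrations) in 0.2% DMSO vehicle; harvested at 6 h. SLCO1B1 mRNA quantified by qNPA chemiluminescence, fitted as gain-of-signal versus DMSO; cytotoxicity from phase-contrast morphology flagged alongside.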
# [8] = CLD_ACTIN_24hr: CellzDirect (CLD) Gene Expression Assay for Baseline Control (Actin) at 24 hours (AID 2283670)
# Summary of the method: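 Primary human hepatocytes dosed over multiple concentrations with 0.2% DMSO vehicle; actin mRNA measured at 24 h by qNPA chemiluminescence. Background control endpoint, fitted as gain of signal versus DMSO.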
# [9] = CLD_ACTIN_6hr: CellzDirect (CLD) Gene Expression Assay for Baseline Control (Actin) at 6 hours (AID 2283676);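 also: active means increased actin mRNA relative to DMSO vehicle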
# Summary of the method: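 Primary human hepatocytes dosed with fresh chemical solutions (vehicle 0.2% DMSO), harvested at 6 h. Actin mRNA quantified by quantitative nuclease protection assay with chemiluminescent read-out, as background control relative to DMSO.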
# [10] = read-out: Cytochrome P450 2C19 (Homo sapiens) (UniProt P33261); test: CLD_CYP2C19_6hr: CellzDirect (CLD) Gene Expression Assay for xenobiotic metabolism (CYP2C19) at 6 hours (AID 2283678)
# Summary of the method: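 Primary human hepatocytes from two donor preparations were dosed daily, with 0.2% DMSO as vehicle, and harvested 6 h after dosing. CYP2C19 mRNA induction was measured by qNPA chemiluminescence and fitted as gain of signal against DMSO.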
# [11] = read-out: Glyceraldehyde-3-phosphate dehydrogenase (Homo sapiens) (UniProt P04406); test: CLD_GAPDH_6hr: CellzDirect (CLD) Gene Expression Assay for Baseline Control (Glyceraldehyde 3-phosphate dehydrogenase) at 6 hours (AID 2283681);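 also: active means increased signal relative to DMSO vehicle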
# Summary of the method: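 Primary human hepatocytes from two donor preparations, dosed at multiple concentrations with 0.2% DMSO vehicle; GAPDH mRNA measured 6 h after dosing by chemiluminescent quantitative nuclease protection assay (qNPA) on denatured lysates. Serves as background control; cytotoxicity annotated by morphology.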
# [12] = read-out: xenobiotic metabolism (CYP1A2), CYP1A2 (gene 1544); test: CLD_CYP1A2_24hr: CellzDirect (CLD) Gene Expression Assay for xenobiotic metabolism (CYP1A2) at 24 hours (AID 2283683)
# Summary of the method: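 Primary human hepatocytes from two donor preparations dosed daily with multiple concentrations of chemical, 0.2% DMSO vehicle. CYP1A2 mRNA at 24 h quantified by qNPA chemiluminescence; gain of signal analyzed relative to DMSO. Cytotoxicity flagged by phase-contrast morphology.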
# [13] = read-out: Cytochrome P450 2C9 (Homo sapiens) (UniProt P11712); test: CLD_CYP2C9_24hr: CellzDirect (CLD) Gene Expression Assay for xenobiotic metabolism (CYP2C9) at 24 hours (AID 2283688);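 also: potency for induction meaning a rise in CYP2C9 mRNA over DMSO vehicle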
# Summary of the method: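 Primary human hepatocytes from two donor preparations, dosed daily for two days at multiple concentrations; vehicle 0.2% DMSO. CYP2C9 mRNA induction at 24 h measured by qNPA chemiluminescence relative to DMSO; cytotoxicity annotated from morphology.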
# [14] = read-out: HMG-CoA synthase (HMGCS2), HMGCS2 (gene 3158); test: CLD_HMGCS2_24hr: CellzDirect (CLD) Gene Expression Assay for HMG-CoA synthase (HMGCS2) at 24 hours (AID 2283691)
# Summary of the method: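 Primary human hepatocytes from two donor preparations, dosed daily with fresh solutions; vehicle 0.2% DMSO, 24 h harvest. HMGCS2 mRNA quantified by qNPA with S1 nuclease digestion and chemiluminescence; gain fitted versus DMSO, cytotoxicity annotated by morphology.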
# [15] = read-out: Glyceraldehyde-3-phosphate dehydrogenase (Homo sapiens) (UniProt P04406); test: CLD_GAPDH_24hr: CellzDirect (CLD) Gene Expression Assay for Baseline Control (Glyceraldehyde 3-phosphate dehydrogenase) at 24 hours (AID 2283692)
# Summary of the method: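 Primary human hepatocytes (two donor preparations) dosed daily for two days, 0.2% DMSO vehicle; GAPDH mRNA measured at 24 h by qNPA chemiluminescence as a background control, gain-of-signal fitted against DMSO.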
# [16] = read-out: ABC Transporter (ABCB1), ABCB1 (gene 5243); test: CLD_ABCB1_48hr: CellzDirect (CLD) Gene Expression Assay for ABC Transporter (ABCB1) at 48 hours (AID 2283695);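 also: potency for induction meaning increase of mRNA over DMSO vehicle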
# Summary of the method: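 Primary human hepatocytes from two donor preparations dosed daily on two consecutive days with 0.2% DMSO vehicle. Harvest at 48 h. ABCB1 mRNA quantified by qNPA with chemiluminescence and fitted for gain of signal versus DMSO.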
compound,measurement,setting,value
CCOP(=S)(OCC)Oc1cc(C)nc(C(C)C)n1,AC50,[1],inconclusive: 65.6 µM
same,AC50,[2],inconclusive: 201 µM
same,AC50,[3],inconclusive: 202 µM
same,AC50,[4],inconclusive: 202 µM
same,AC50,[5],inconclusive: 146 µM
same,AC50,[6],inconclusive: 9.55 µM
same,outcome,[7],inactive
same,AC50,[8],inconclusive: 20 µM
same,outcome,[9],inactive
same,AC50,[10],inconclusive: 6.21 µM
same,outcome,[11],inactive
same,AC50,[12],active: 7.6 µM
same,AC50,[13],inconclusive: 0.0801 µM
same,AC50,[14],inconclusive: 20 µM
same,AC50,[15],inconclusive: 20 µM
same,AC50,[16],inconclusive: 20 µM

# Reprinted at random: two records from the list.
compound,measurement,setting,value
CCOP(=S)(OCC)Oc1cc(C)nc(C(C)C)n1,AC50,[15],inconclusive: 20 µM
same,AC50,[10],inconclusive: 6.21 µM
